# Assay results from article doi:10.1101/2024.05.06.590855.
# Protein sequences, listed by entry. Tags and fused reporters are not part of them.
# UniProt O09106: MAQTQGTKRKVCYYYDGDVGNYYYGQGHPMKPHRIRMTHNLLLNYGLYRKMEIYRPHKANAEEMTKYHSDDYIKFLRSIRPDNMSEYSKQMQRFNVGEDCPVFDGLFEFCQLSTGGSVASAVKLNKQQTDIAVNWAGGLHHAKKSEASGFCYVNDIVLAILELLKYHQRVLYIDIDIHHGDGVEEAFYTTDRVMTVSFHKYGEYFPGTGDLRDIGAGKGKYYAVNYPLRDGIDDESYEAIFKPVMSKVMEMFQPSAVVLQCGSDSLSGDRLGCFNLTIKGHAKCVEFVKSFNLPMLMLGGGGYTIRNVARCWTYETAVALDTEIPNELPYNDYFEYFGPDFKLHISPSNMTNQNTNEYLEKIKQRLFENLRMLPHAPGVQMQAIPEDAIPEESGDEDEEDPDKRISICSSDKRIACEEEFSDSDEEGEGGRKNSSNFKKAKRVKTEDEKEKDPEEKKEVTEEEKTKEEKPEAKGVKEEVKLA
# UniProt P70288: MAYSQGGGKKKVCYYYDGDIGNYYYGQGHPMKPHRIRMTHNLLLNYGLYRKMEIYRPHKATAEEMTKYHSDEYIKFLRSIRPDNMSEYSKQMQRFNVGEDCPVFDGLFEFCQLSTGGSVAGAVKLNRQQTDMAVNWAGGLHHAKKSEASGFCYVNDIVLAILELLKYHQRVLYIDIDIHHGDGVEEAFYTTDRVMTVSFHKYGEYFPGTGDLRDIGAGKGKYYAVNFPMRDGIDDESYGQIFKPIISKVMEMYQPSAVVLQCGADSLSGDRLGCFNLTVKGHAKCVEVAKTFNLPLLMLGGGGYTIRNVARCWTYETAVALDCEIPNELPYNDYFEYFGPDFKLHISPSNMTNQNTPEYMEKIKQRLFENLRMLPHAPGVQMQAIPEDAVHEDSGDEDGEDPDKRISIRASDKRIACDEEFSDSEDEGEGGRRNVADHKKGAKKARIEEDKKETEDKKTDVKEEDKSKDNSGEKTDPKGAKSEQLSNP
# These are yes or no findings as the source states them, for the method shown. In cells and extracts the contact can be indirect. Some results given as binding are weak or reduced against the parent protein; the word gives no strength.
# Target: histone deacetylase 1 (HDAC1) (mouse (endogenous in AM-like cells from mouse bone marrow)) (UniProt O09106)
# Assay: co-IP
substance,measurement,value
histone deacetylase 2 (HDAC2) (from UniProt P70288 1-488),binding,binds
